{
  "source": "paper PMC12431657",
  "about": "“Discovery and mechanistic insights of dibenzoylmethane as a broad spectrum inhibitor of coronavirus” (PLOS Pathogens, 2025)",
  "note": "Structures can show the parent of a compound that is named as a salt. Out of some 3,300 compounds screened, about 95 (3%) showed an effect of 50% or more. This is one part of the list.",
  "data": [
    {"test_system": "HCoV-229E", "design": "species or system Huh-7; HTS, protection from HCoV-229E induced cell death, luminescent cell viability (CellCounting-Lite 2.0), inhibition rate", "conditions": "24 h, 10 µM; inhibitor", "values": [
      {"smiles": "COc1cc2c(cc1OC)[C@@H]1C(=O)c3ccc4c(c3O[C@@H]1CO2)CC(C(C)C)O4", "note": "(some centres unmarked) [Dihydrorotenone]", "229E Inhibition rate": "6.6%"},
      {"smiles": "CC(=O)OC(C)(C)/C=C/C(=O)[C@](C)(O)[C@H]1[C@H](O)C[C@@]2(C)[C@@H]3CC=C4[C@@H](C=C(O)C(=O)C4(C)C)[C@]3(C)C(=O)C[C@]12C", "note": "[Cucurbitacin E]", "229E Inhibition rate": "3.5%"},
      {"smiles": "COc1cc2c(cc1OC)[C@@H]1C(=O)c3ccc4c(c3O[C@@H]1CO2)C=CC(C)(C)O4", "note": "[Deguelin]", "229E Inhibition rate": 1.3},
      {"smiles": "C[C@H]1CC[C@@H]2N(C1)C[C@H]1[C@@H]3C[C@H]4[C@@H](C[C@@H](O)[C@H]5C[C@@H](O)CC[C@@]54C)[C@@H]3CC[C@@H]1[C@]2(C)O", "note": "[Isoverticine]", "229E Inhibition rate": "12.2%"},
      {"smiles": "C[C@]12CC[C@H](O)C[C@H]1CC[C@@H]1[C@@H]2CC[C@]2(C)[C@@H](c3ccc(=O)oc3)C[C@H]3O[C@]132", "note": "[Resibufogenin]", "229E Inhibition rate": "14.5%"},
      {"smiles": "CC(C)(O)[C@@H]1[C@H]2OC(=O)[C@@H]1[C@]1(O)C[C@H]3O[C@]34C(=O)O[C@H]2[C@]14C", "note": "[Picrotin]", "229E Inhibition rate": "42.9%"},
      {"smiles": "CC(C)(O)/C=C/C(=O)[C@](C)(O)[C@H]1[C@H](O)C[C@@]2(C)[C@@H]3CC=C4[C@@H](C[C@H](O)C(=O)C4(C)C)[C@]3(C)C(=O)C[C@]12C", "note": "[Cucurbitacin D]", "229E Inhibition rate": "17.2%"},
      {"smiles": "CCN1C[C@]2(COC)CC[C@H](O)[C@]34C1[C@@](O)([C@@H](OC)[C@H]23)[C@@]1(O)C[C@H](OC)[C@H]2C[C@@H]4[C@@H]1[C@H]2OC", "note": "[Delsoline]", "229E Inhibition rate": "8.5%"},
      {"smiles": "COC1c2c(ccc3c2OCO3)-c2ccc3cc4c(cc3c2N1C)OCO4", "note": "(centres unmarked) [6-Methoxydihydrosanguinarine]", "229E Inhibition rate": "4.4%"},
      {"smiles": "CO[C@H]1C[C@H](O[C@H]2CC[C@]3(C)[C@H]4CC[C@]5(C)[C@@H](C6=CC(=O)OC6)CC[C@]5(O)[C@@H]4CC[C@]3(O)C2)O[C@H](C)[C@H]1O[C@@H]1O[C@H](CO)[C@@H](O)[C@H](O)[C@H]1O", "note": "[Periplocin]", "229E Inhibition rate": 25},
      {"smiles": "COc1cc2ccc(=O)oc2c2ccoc12", "note": "[Sphondin]", "229E Inhibition rate": "14.9%"},
      {"smiles": "COc1ccccc1OC", "note": "[1,2-Dimethoxybenzene]", "229E Inhibition rate": "40.8%"},
      {"smiles": "CCC1CCC(=O)O1", "note": "(centres unmarked) [γ-Hexalactone]", "229E Inhibition rate": "0%"},
      {"smiles": "COc1cc(C=O)cc(OC)c1OC", "note": "[3,4,5-Trimethoxybenzaldehyde]", "229E Inhibition rate": "11.1%"},
      {"smiles": "CC(C)(O)[C@H]1O[C@H]2CC[C@@]3(C)[C@@](O)(CC[C@H]4Cc5c([nH]c6ccccc56)[C@@]43C)C2=CC1=O", "note": "[Paxilline]", "229E Inhibition rate": "0%"},
      {"smiles": "CCOC1c2c(ccc3c2OCO3)-c2ccc3cc4c(cc3c2N1C)OCO4", "note": "(centres unmarked) [Ethoxysanguinarine]", "229E Inhibition rate": "2.8%"},
      {"smiles": "C/C(=C\\c1csc(C)n1)[C@@H]1C[C@@H]2O[C@@H]2CCC[C@H](C)[C@H](O)[C@@H](C)C(=O)C(C)(C)[C@@H](O)CC(=O)O1", "note": "[Epothilone A]", "229E Inhibition rate": "33.8%"},
      {"smiles": "CNC[C@H](N)C(=O)O", "note": "[β-N-methylamino-L-alanine (hydrochloride)]", "229E Inhibition rate": "11.1%"},
      {"smiles": "O=C1C=CC[C@@H]2[C@H]3CCC[N+]4([O-])CCC[C@@H](CN12)[C@@H]34", "note": "(some centres unmarked) [Oxysophocarpine]", "229E Inhibition rate": "11.6%"},
      {"smiles": "CC1(C)[C@H]2O[C@H]2[C@H]2[C@](C)(O)[C@@H]3CC[C@@H]4[C@@H](O)[C@@]3(C[C@@H](O)[C@@]21O)C[C@@]4(C)O", "note": "[Rhodojaponin III]", "229E Inhibition rate": "46.8%"},
      {"smiles": "COC[C@@]12CC[C@H](OC)[C@@]34[C@@H]5C[C@@]6(O)[C@H](OC(=O)c7ccccc7)[C@@H]5[C@@](OC(C)=O)([C@@H]([C@H](OC)[C@H]13)[C@H]4N(C)C2)[C@@H](O)[C@@H]6OC", "note": "[Hypaconitine]", "229E Inhibition rate": "42.3%"},
      {"smiles": "CC(C)=CCC[C@@](C)(O)[C@H]1CC[C@]2(C)[C@@H]1[C@H](O)C[C@@H]1[C@@]3(C)CC[C@H](O[C@@H]4O[C@H](CO)[C@@H](O)[C@H](O)[C@H]4O)C(C)(C)[C@@H]3CC[C@]12C", "note": "[20(R)-Ginsenoside Rh2]", "229E Inhibition rate": "3.7%"},
      {"smiles": "CC(=O)O[C@H]1C[C@]2(O)[C@@H]3CC[C@@H]4C[C@@H](O)CC[C@]4(C)[C@H]3CC[C@]2(C)[C@H]1c1ccc(=O)oc1", "note": "[Bufotalin]", "229E Inhibition rate": "18.6%"},
      {"smiles": "C[C@]12CC[C@H](O)C[C@@]1(O)CC[C@@H]1[C@@H]2CC[C@]2(C)[C@@H](c3ccc(=O)oc3)CC[C@]12O", "note": "[Telocinobufagin]", "229E Inhibition rate": 16.1},
      {"smiles": "N#CCc1ccc(O)cc1", "note": "[4-Hydroxybenzyl cyanide]", "229E Inhibition rate": 7.1},
      {"smiles": "CC(C)=CCC[C@](C)(O)[C@H]1CC[C@]2(C)[C@@H]1[C@H](O)C[C@@H]1[C@@]3(C)CC[C@H](O[C@@H]4O[C@H](CO)[C@@H](O)[C@H](O)[C@H]4O)C(C)(C)[C@@H]3CC[C@]12C", "note": "[Ginsenoside Rh2]", "229E Inhibition rate": "4.7%"},
      {"smiles": "CCN1C[C@]2(C)CC[C@H](O)[C@]34C1[C@@H](C[C@H]23)[C@@]1(O)C[C@H](OC)[C@H]2C[C@@H]4[C@@H]1[C@H]2O", "note": "[Karacoline]", "229E Inhibition rate": "19.2%"},
      {"smiles": "CC1=C2C[C@H]3[C@@H](CC(=O)[C@H]4C[C@@H](O)CC[C@@]43C)[C@@H]2CC[C@]12O[C@@H]1C[C@H](C)CN[C@H]1[C@H]2C", "note": "[Peimisine]", "229E Inhibition rate": "10.9%"},
      {"smiles": "C=C1[C@H](OC(C)=O)[C@@H](OC(=O)c2ccccc2)[C@@H](OC(C)=O)C(C)(C)[C@H]2O[C@](O)([C@H](C)C2=O)[C@@]2(OC(C)=O)C[C@H](C)[C@H](OC(C)=O)[C@@H]2[C@H]1OC(C)=O", "note": "[Kansuinine A]", "229E Inhibition rate": "17.5%"},
      {"smiles": "CC(C)=CCC[C@@](C)(O)[C@H]1CC[C@]2(C)[C@@H]1[C@H](O)C[C@@H]1[C@@]3(C)CC[C@H](O)C(C)(C)[C@@H]3[C@@H](O[C@@H]3O[C@H](CO)[C@@H](O)[C@H](O)[C@H]3O)C[C@]12C", "note": "[(20R)-Ginsenoside Rh1]", "229E Inhibition rate": "30.3%"},
      {"smiles": "C[S+](CC[C@H](N)C(=O)[O-])C[C@H]1O[C@@H](n2cnc3c(N)ncnc32)[C@H](O)[C@@H]1O", "note": "(stereo partly drawn) [S-Adenosyl-L-methionine (disulfate tosylate)]", "229E Inhibition rate": "18.3%"},
      {"smiles": "C/C=C/C#CC#C/C=C/c1ccco1", "note": "[Atractylodin]", "229E Inhibition rate": "10.3%"},
      {"smiles": "COc1cc2cc(c1Cl)N(C)C(=O)C[C@H](OC(=O)C(C)C)[C@]1(C)O[C@@H]1[C@H](C)[C@@H]1C[C@@](O)(NC(=O)O1)[C@H](OC)/C=C/C=C(\\C)C2", "note": "[Ansamitocin P-3]", "229E Inhibition rate": "22.8%"},
      {"smiles": "CN1[C@@H](CC(=O)c2ccccc2)CCC[C@H]1CC(=O)c1ccccc1", "note": "[Lobelanine]", "229E Inhibition rate": "19.2%"},
      {"smiles": "CN1Cc2c(ccc3c2OCO3)[C@@H]2[C@H]1c1cc3c(cc1C[C@@H]2O)OCO3", "note": "[Chelidonine]", "229E Inhibition rate": "12.4%"},
      {"smiles": "C[C@H](CCC(=O)O)C[C@H](C)C[C@H](C)C(=O)/C=C(\\O)[C@H](C)C[C@H](C)C/C=C/[C@@H](C)[C@@H](O)[C@@H](C)[C@@H](O)C[C@@H]1CC[C@@](C)([C@H]2CC[C@@](C)([C@@H](C)O)O2)O1", "note": "[Ionomycin (calcium)]", "229E Inhibition rate": "0%"},
      {"smiles": "CC(C)[C@]12CC(=O)[C@H](C)[C@H]1C2", "note": "[α-Thujone]", "229E Inhibition rate": "13.6%"},
      {"smiles": "O=C1C([C@@H]2O[C@H](CO)[C@@H](O)[C@H](O)[C@H]2O)=C(O)/C(=C(O)/C=C/c2ccc(O)cc2)C(=O)C1(O)[C@@H]1O[C@H](CO)[C@@H](O)[C@H](O)[C@H]1O", "note": "(some centres unmarked) [Hydroxysafflor yellow A]", "229E Inhibition rate": "0%"}
    ]}
  ]
}
